Results are given in words; binding and its absence hold for the method and conditions named. Some results given as binding are weak or reduced against the parent protein; the word gives no strength.

Sequences of proteins named here, by UniProt entry; tags and fusion partners are left off. A change or cut given only in a name is not applied to a line headed by its entry.
UniProt Q07011: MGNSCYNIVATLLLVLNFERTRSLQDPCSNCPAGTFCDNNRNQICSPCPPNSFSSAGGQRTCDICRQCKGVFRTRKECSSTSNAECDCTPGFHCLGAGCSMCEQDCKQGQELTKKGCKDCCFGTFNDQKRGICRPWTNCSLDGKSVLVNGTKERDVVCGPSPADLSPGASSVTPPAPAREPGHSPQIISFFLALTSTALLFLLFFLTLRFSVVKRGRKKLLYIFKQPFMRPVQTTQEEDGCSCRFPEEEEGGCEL

Test [1] addresses 4-1BB (antigen of the Octet kinetics) (human) (UniProt Q07011). Briefly: Octet Red 96 kinetics.
Test [2] deals with human 4-1 BB-Fc protein (human) (UniProt Q07011). Briefly: ELISA (legend of FIGS. 1A-1C). (In general: ELISA stands for enzyme-linked immunosorbent assay.)
Test [3] shares this target. Briefly: ELISA, plate coated with human 4-1BB-Fc.
Test [4] has the same target. Briefly: ELISA on plate-coated human 4-1BB-Fc (0.1 ug/ml), goat anti-human IgG-HRP, TMB.

B1: 41B03 (antibody, human IgG4 S228P, V domains shown)
VH: EVQLLESGGGLVQPGGSLRLSCAASGFTFSSNVMNWVRQAPGKGLEWVSEISHSGSTNYNPSLKSRFTISRDNSKNTLYLQMNSLRAEDTAVYYCAVGAGNLGYWGQGTLVTVSS
VL: EIVLTQSPGTLSLSPGERATLSCQASQDISNYLNWYQQKPGQAPRLLIYGASSRATGIPDRFSGSGSGTDFTLTISRLEPEDFAVYYCQQYNSYPITFGQGTKLEIKR
Take B1: the binding entry in test [1], in test [2], in test [3] and in test [4] was “binds” in each case.

B2: 41B01 (antibody, human IgG4 S228P, lambda, V domains shown)
VH: EVQLLESGGGLVQPGGSLRLSCAASGFTFSSYDMSWVRQAPGKGLEWVSWISYSGGSIYYADSVKGRFTISRDNSKNTLYLQMNSLRAEDTAVYYCARDGQRNSMREFDYWGQGTLVTVSS
VL: QSVLTQPPSASGTPGRRVTISCSGSSSNIGNNYVTWYQQLPGTAPKLLIYADSHRPSGVPDRFSGSKSGTSASLAISGLRSEDEADYYCATWDYSLSGYVFGGGTKLTVLG
With B2, the binding result in test [1] is recorded as “binds”.

B3: 41B02 (antibody, human IgG4 S228P, lambda, V domains shown)
VH: EVQLLESGGGLVQPGGSLRLSCAASGFTFSGYDMSWVRQAPGKGLEWVSVIYPDDGNTYYADSVKGRFTISRDNSKNTLYLQMNSLRAEDAAVYYCAKHGGQKPTTKSSSAYGMDGWGQGTLVTVSS
VL: B2 VL
As for B3, the binding entry in test [1] is on record as “binds”.

The record behind these values is patent US20220242961A1.
